Measurements from patent publication US20110082203A1, “PROCESS TO DIAGNOSE OR TREAT BRAIN INJURY” (priority 2008, published 2011).

Tested on: α-II spectrin breakdown products (SBDP)
Settings: CSF, 24 hours post-TBI; 5 mg/kg i.p.; p=0.028

With CCN(CC)CCOC(=O)C1(C2CCCCC2)CCCCC1 [Dicyclomine, dicyclomine] as the compound, how does the “145 kDa SBDP levels compared to the vehicle treatment group” value read?
The value was “significantly (p=0.028) reduced”.
